The source of these data is paper PMC10993188, “RAD51 separation of function mutation disables replication fork maintenance but preserves DSB repair”.

Protein sequences, listed by entry. Tags and fused reporters are not part of them. Lines headed by an entry give the natural chain unless they say otherwise; changes in a name come on top.
UniProt Q08297: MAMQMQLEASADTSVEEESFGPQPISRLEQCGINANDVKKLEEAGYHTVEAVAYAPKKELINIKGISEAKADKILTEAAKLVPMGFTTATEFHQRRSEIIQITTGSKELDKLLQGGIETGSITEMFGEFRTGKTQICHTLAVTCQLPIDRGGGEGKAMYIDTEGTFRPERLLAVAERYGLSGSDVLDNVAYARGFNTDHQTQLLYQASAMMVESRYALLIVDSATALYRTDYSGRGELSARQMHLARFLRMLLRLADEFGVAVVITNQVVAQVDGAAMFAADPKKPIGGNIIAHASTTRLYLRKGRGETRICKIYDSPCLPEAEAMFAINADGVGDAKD
UniProt Q06609: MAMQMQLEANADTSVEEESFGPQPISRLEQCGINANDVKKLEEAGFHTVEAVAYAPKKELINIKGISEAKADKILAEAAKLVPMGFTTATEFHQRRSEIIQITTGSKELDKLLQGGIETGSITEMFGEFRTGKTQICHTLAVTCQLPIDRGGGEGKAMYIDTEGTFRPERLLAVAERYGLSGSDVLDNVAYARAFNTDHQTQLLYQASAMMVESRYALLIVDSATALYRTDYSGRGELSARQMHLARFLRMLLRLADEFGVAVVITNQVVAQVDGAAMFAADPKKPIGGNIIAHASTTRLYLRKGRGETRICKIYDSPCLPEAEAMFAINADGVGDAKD

No constants are given. Whether binding was seen depends on the method and setting. For part of these data: Binding seen in cells or lysates may run through a third protein. For part of these data: Where a sequence is shown, tags or fusion partners need not be part of it. Some binding calls cover weakened binding; strength is not graded here.

The target in assay [1] is pGBKT7-mRad51 (mouse Rad51) (mouse) (UniProt Q08297). As to the kind of experiment: two-hybrid; pGAD-RAD51 in PJ69-4α mated with PJ69-4A carrying pGBKT7 or pGBT9 fusions; growth on SC-Trp-Leu-His with 30 mM 3-AT, 30°C.
Assay [2] concerns the target Strep II human Rad51-S181P (human) (UniProt Q06609). As to the kind of experiment: co-IP; Strep II-RAD51 variants and 3xFlag-BRC3 or 3xFlag-Ex27 co-transfected in HEK293T; lysate in buffer X (100 mM Tris-HCl pH 8.5, 250 mM NaCl, 1 mM EDTA, 1% NP-40) on Streptactin Sepharose 1 hr at 4°C; immunoblot. (In general: A western blot detects proteins with antibodies after separation by electrophoresis.)

Consider “pGAD-hRAD51 (human Rad51), wild type (from UniProt Q06609 1-339)”, for which the binding result in assay [1] was “binds”.

Regarding “pGAD-rad51 S181P (human RAD51 S181P) (from UniProt Q06609 1-339)”, in assay [1], the binding entry is listed as “binds”.

B1: 3XFlag-hBRCA2 Ex27 (domain or fragment)
chain: ALDFLSRLPLPPPVSPICTFVSPAAQKAFQPPRSCG
In the case of B1, in assay [2], the binding result is “no binding”.
